The structures given here were assigned with low confidence; some may be wrong.
Biological target: human Cot/Tpl2 kinase (Homo sapiens, UniProt P41279)
Experiment: Tpl2/Cot kinase assay: GST-MEK1 phosphorylation detected by ELISA (DELFIA Eu)
Type: biochemical
Settings: Table 2, GST-MEK1 substrate, 50 uM ATP

By UniProt entry, the sequences of proteins in these tests, tags left out. Residues count along the entry.
UniProt P41279, 30-398 limits assumed: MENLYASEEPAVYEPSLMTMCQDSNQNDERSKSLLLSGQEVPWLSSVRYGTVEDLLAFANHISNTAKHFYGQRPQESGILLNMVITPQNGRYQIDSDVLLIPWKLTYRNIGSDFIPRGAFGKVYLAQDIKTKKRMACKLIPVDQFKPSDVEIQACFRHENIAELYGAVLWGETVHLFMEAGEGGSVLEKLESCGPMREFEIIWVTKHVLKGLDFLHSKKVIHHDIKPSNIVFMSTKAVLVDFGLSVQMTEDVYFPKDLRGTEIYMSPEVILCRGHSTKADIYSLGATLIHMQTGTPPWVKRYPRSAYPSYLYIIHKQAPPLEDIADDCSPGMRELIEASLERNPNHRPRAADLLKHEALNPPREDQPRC

For N#Cc1cnc2c(Cl)cc(NCc3cn(CCC4CCNCC4)nn3)cc2c1Nc1ccc(F)c(Cl)c1 [Example 692], the IC50 was 45 nM.
